This passage reports binding results from paper doi:10.1101/2021.08.25.457671.

By UniProt entry, the sequences of proteins in these tests, tags left out.
UniProt P10591: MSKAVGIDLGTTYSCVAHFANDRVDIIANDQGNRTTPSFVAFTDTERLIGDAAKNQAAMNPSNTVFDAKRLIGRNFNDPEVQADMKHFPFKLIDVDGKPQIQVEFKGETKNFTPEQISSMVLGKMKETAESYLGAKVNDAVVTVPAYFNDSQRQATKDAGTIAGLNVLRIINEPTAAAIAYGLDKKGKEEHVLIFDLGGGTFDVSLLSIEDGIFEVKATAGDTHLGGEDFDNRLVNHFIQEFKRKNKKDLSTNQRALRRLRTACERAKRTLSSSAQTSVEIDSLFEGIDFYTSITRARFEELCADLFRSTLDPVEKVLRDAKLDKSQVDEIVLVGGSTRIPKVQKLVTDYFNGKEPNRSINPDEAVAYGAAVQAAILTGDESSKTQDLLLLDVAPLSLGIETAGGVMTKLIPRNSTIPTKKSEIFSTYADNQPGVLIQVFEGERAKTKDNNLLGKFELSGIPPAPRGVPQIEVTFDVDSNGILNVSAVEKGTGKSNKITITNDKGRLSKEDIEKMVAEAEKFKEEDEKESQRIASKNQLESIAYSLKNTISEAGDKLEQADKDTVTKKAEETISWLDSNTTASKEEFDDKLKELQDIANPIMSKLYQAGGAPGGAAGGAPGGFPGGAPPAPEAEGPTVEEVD

This assay has as its target T1, Pim1 wildtype (bait of the co-IP in yeast) (budding yeast) (UniProt P36775).
T1 sequence: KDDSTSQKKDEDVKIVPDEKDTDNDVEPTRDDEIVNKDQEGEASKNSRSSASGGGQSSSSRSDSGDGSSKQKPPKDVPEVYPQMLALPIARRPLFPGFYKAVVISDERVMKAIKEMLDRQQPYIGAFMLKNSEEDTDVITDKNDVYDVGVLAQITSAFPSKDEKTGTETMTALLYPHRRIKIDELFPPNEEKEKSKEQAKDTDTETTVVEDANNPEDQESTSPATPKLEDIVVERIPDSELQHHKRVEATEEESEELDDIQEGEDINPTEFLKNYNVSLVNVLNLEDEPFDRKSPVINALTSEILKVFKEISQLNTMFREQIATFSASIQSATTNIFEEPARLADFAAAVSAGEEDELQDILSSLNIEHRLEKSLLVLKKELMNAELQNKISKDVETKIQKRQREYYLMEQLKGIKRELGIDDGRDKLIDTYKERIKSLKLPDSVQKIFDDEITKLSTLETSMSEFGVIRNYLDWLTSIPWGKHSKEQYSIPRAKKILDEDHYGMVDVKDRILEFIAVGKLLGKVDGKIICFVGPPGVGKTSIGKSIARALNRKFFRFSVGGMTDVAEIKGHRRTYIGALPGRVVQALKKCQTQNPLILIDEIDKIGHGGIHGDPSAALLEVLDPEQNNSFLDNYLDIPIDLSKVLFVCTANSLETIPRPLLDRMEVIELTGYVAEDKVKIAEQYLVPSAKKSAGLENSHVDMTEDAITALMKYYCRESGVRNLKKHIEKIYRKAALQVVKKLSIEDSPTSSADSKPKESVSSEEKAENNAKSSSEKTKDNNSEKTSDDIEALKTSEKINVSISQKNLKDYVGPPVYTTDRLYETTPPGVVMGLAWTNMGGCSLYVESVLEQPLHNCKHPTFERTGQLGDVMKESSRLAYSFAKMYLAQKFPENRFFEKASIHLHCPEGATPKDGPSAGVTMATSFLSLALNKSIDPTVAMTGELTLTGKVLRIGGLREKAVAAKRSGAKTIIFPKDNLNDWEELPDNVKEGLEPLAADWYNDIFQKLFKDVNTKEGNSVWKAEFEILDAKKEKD
The experiment in a line: co-IP.

These are yes or no findings as the source states them, for the method shown. In cells and extracts the contact can be indirect. Some entries that bind do so weakly or less than the wild type.

Consider “Ssa1 found by immunoblot in co-immunoprecipitates of client proteins from yeast (from UniProt P10591 1-642)”, for which the binding entry is “binds”.
